PubChem BioAssay AID1508588, Peter MacCallum Cancer Centre – 2020
Test: 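Which gene losses make BRAF-mutant melanoma cells more responsive to vemurafenib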 (primary screen). Cell system: human WM266.4 melanoma cells (BRAF V600 mutant). Reagent: siRNA pool against human genes, 40 nM. Timing: 96 h from transfection to read-out. Conditions: vemurafenib 300 nM (about IC25), added 48 h after transfection, for 48 h; comparison arm got DMSO vehicle only. Detection: 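Cell gain (DAPI nuclei at end minus before drug, mean of two replicates) and medium lactate by absorbance per cell, both as ratio to non-targeting siRNA, also grouped into fold-change classes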. Scale: cell gain with vemurafenib: higher = more cell gain than with non-targeting siRNA; lactate per cell with vemurafenib: higher = more lactate made per cell. Active means: 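Enhancement is called by pairing each knock-down's vehicle-arm and drug-arm fold-change classes for viability or glycolysis; which class combinations qualify is not given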. Meaning of the calls: active = enhances vemurafenib effect; inactive = no enhancement seen.
Shown is one part, drawn at random, of about 18,000 reagents tested. 790 of them (4.4%) were called active. 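Calls rest on a combination of fold-change classes in drug and vehicle arms, not all shown here.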 Unmarked entries are inactive.

gene symbol | cell gain with vemurafenib | lactate per cell with vemurafenib
ASAP2 | 1.37 | 0.56
FBLIM1 | 0.75 | 0.66
PLAC1 | 0.53 | 1.73
LDHB | 0.65 | 1.45
LRRC37B | 0.8 | 0.81
RLF | 0.61 | 1.24
ATF7IP | 0.59 | 0.78
WDR75 | 0.22 | 1.67
DBF4B | 0.87 | 0.62
CNNM2 | 0.66 | 1.44
SDK2 | 0.46 | 0.98
PAPOLB | 0.02 | 2.06
LRRC14 | 0.3 | 1.5
ATP8A1 | 0.85 | 0.98
IGF2 | 0.89 | 0.98
STX18 | 0.57 | 1.02
ATP7A | 0.33 | 0.59
UTF1 | 0.66 | 0.55
HPD | 0.56 | 2.56
MSL2 | 0.04 | 1.64
NKTR | 1.05 | 0.49
KCTD9 | 0.62 | 0.68
EDNRB | 0.75 | 1.46
GLI1 | 0.14 | 1.05
NUAK2 | 0.72 | 1.36
SLC24A5 | 0.07 | 0.48
MT1G | 0.36 | 1.66
STEAP1 | 0.58 | 0.68
ANO10 | 0.43 | 0.66
SBDS | 0.92 | 0.93
FGL1 | 1.08 | 0.74
POTEH | -0.12 | 2.63
KRT82 | 1.03 | 0.42
KLHDC7A | 1.02 | 1.02
HYCC1 | 1.08 | 0.98
PTTG1IP | 0.71 | 0.41
ZNF792 | 0.42 | 1.93
SLC25A13 | 0.99 | 0.38
C2orf15 | 0.38 | 0.84
NMNAT3 | 0.16 | 1.27
STAMBPL1 | 0.3 | 2.25
PTK7 | 0.81 | 1.25
SPRED2 | 0.7 | 0.66
MOG | 0.32 | 1.94
MSTO1 | 1.1 | 0.66
PPP1R12C | 0.98 | 0.69
MIER3 | 0.16 (active) | 0.38
RDH13 | 0.34 | 1.43
PLEKHH1 | 0.2 | 1.17
EPHX2 | 1.11 | 0.86
LINC02903 | 0.55 | 0.8
SENP8 | 0.51 | 0.81
SPIN3 | 0.17 | 0.66
ERV3-1 | 0.76 | 0.9
PDP1 | 0.69 | 0.38
OPA3 | 0.73 | 1.66
NMRAL1 | 0.34 | 0.93
IPO7 | 0.86 | 0.66
ST8SIA3 | 0.52 | 0.92
CCT8L1P | 1.11 | 0.58
ERBB4 | 0.68 | 0.6
GTF3C2 | 0.87 | 1.09
CRY2 | 0.75 | 0.84
C16orf78 | 0.68 | 0.82
CLEC1A | 0.46 | 1.66
FOXI1 | 0.88 | 0.88
PLSCR4 | 0.84 | 1.08
MEMO1 | 0.69 | 0.58
KLRG2 | 0.47 | 0.86
LCE3C | 0.17 | 1.45
WSB2 | 0.3 | 1.41
NPHP4 | 0.82 | 0.76
TSPAN12 | 0.69 | 0.91
SIGLEC5 | 0.53 | 0.55
TTLL12 | 0.22 | 0.67
CREBRF | 0.45 (active) | 0.28
STK17B | 0.53 | 1.05
LYZL4 | 0.45 | 0.36
TBC1D17 | 0.62 | 1.34
COL8A1 | 0.74 | 1.19
WAPL | 0.22 | 0.82
SDHD | 0.49 | 1.45
CST2 | 0.33 | 1.58
ZNF616 | 0.79 | 0.79
